The target of this assay is HrpE-BD (Xanthomonas citri subsp. citri HrpE fused to the GAL4 DNA binding domain) (Xanthomonas citri subsp. citri). Put plainly: two-hybrid; co-transformation of pOBD and pOAD plasmids in yeast strain PJ694a; growth on medium lacking W, L, H and A with 35 mM 3AT, 30 °C.

No constants are given. Whether binding was seen depends on the method and setting. Binding can be weak; no strength is given. Where a sequence is shown, tags or fusion partners need not be part of it.

B1: C-AtGRP-3-AD (conserved C-terminal region of AtGRP-3 fused to the GAL4 activation domain) (domain or fragment, UniProt Q9SL15 60-145)
chain: GGGNYQGGGGNYQGGGGNYQGGGGRYQGGGGRYQGGGGRYQGGGGRQGGGGSGGSYCRHGCCYRGYNGCSRCCSYAGEAVQTQPGH
For B1, the binding result was “binds”.

Values taken from paper PMC6026121.
